Z-score data for 30 sequences are collected here from PubChem BioAssay AID1508600 (Functional Genomics Laboratory (NCATS/FGL), 2020).

The whole screen tested about 53,000 sequences, of which about 3,700 (7%) were called active.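 How the source made its calls: active means gene knockdowns whose robust z-score for IL-1 alpha signal is at least 2 or at most -2, so actives lie on both sides; inactive means the rest.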 This is one part of the list.

This experiment in a line: Components of the Cytosolic LPS Sensing Pathway: Gene Identification via Genome-wide siRNA Screen.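 Further: robust z of the log signal after scaling to non-targeting control siRNA wells of the plate.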 Conditions: RAW264.7 macrophages, IL-1a HTRF, actives lie on both sides, screened at 100 nM (by protocol), cells primed 5 h with Pam3CSK4 first. A digest of the protocol: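 Mouse macrophage line RAW264.7 is transfected with siRNA (100 nM final), grown 48h, primed with TLR ligand Pam3CSK4 5 h and given intracellular LipidA 24 h. IL-1a in supernatant is read by HTRF and viability by luminescence.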
(Time-resolved FRET reads energy transfer from a long-lived donor to a nearby acceptor.)
Turning to GCGGACAGGACAUUGAUCUTT against Arpc3, the z-score was inactive: -0.339. Turning to GGUCAGAGCCAAUUUCUAUTT against Kcnmb1, the z-score is inactive: -1.53. As to GGUUCUGCACAUCUGAACATT against Cst3, the z-score was inactive: -0.109. GGCAAUCCUAACACAGAAUTT against Cgrrf1: the z-score was inactive: -0.905. Take GGAACAAUUCUGGGUAAUUTT against Bcl2l10: the z-score is inactive: -0.648. As for CCCACUUGUGGCAGUGUACTT against Stub1, the z-score was inactive: 0.818. Turning to GGACUGUUUUAGAUUACUUTT against Klra4, the z-score is inactive: 0.968.

Consider CGGACACUUUCUGUACUUATT against Mgat2, for which the z-score is inactive: -0.44.

As to GGAAAACCUAGAAGAUAAUTT against Syt16, the z-score was inactive: -1.35. With CGAGAGUAACUUUCGUCAGTT against Dedd, the z-score was inactive: 1.07. Consider CCCAUACUAAGGAACUGCATT against Tnfrsf12a, for which the z-score was inactive: -0.323. As for GGACCAUAUCAUUGAUAUATT against Thoc3, the z-score was inactive: -0.908. For the sequence GGCUAAAUUCUACUUGAUATT against Ppfibp1, the z-score is inactive: -1.89. Turning to GGAAAACUACUAAAAAGUCTT against Zfp938, the z-score was inactive: -0.31.

As for CGCAGUUAUAUUCCACCACTT against Slain1, the z-score is inactive: -0.317.

As for GGAGCAUCCCGACUACAAGTT against Sox21, the z-score is active: 3.54. For GGAGCCAAGUGUACAGUCUTT against Stk19 the value was inactive: 0.451. As to GCAGAACGUAUUCUGAAACTT against Uap1, the z-score is inactive: 0.605. Turning to GGAUCUUAAGAAGUUCCAATT against Chchd6, the z-score is inactive: -0.104. For GGUUGUAGACGUAAAUGACTT against Pcdhgc3 the value was inactive: -0.235. With GGGUAAACAAACAGGUACCTT against Tril the figure was inactive: 0.0864. Turning to GCACUUGCUAUUAGUGUCCTT against Rhod, the z-score is inactive: -0.286. For GGCAAUAACCAGUAAAUGUTT against Maf, the z-score was inactive: 0.522. For the sequence GGUAUCAAGUGCAGAAUGUTT against Slc37a1, the z-score is inactive: 1.65. With GAAUCCGAGAUACGAGCCUTT against H2-D4 the figure was inactive: 0.0829. Regarding GGAUCAGAACGUGGUGCAUTT against Slc12a5, the z-score is inactive: -0.504. For GGAGAUGAUCUUCAACCUUTT against Eya2 the value was inactive: 1.63; for GGCAGACCGGUAUUUUGUGTT against Ascc2, inactive: 0.458; for GGGUAUCUGUUCUGAUACUTT against Lsm11, inactive: 0.329. Take GGGCAACAUUGCGCAAAUGTT against Pwp2: the z-score is inactive: -1.4.
